Measured values taken from doi:10.1101/2025.09.18.676991.
No constants are given. Whether binding was seen depends on the method and setting. Binding seen in cells or lysates may run through a third protein. For some of these results: A result given as binding can be weak or reduced; the word gives no strength. Where a sequence is shown, tags or fusion partners need not be part of it.

Key:
Test in all cases: co-IP
PPM1G-Flag = target: T1, PPM1G-Flag (UniProt O15355)
T1 sequence: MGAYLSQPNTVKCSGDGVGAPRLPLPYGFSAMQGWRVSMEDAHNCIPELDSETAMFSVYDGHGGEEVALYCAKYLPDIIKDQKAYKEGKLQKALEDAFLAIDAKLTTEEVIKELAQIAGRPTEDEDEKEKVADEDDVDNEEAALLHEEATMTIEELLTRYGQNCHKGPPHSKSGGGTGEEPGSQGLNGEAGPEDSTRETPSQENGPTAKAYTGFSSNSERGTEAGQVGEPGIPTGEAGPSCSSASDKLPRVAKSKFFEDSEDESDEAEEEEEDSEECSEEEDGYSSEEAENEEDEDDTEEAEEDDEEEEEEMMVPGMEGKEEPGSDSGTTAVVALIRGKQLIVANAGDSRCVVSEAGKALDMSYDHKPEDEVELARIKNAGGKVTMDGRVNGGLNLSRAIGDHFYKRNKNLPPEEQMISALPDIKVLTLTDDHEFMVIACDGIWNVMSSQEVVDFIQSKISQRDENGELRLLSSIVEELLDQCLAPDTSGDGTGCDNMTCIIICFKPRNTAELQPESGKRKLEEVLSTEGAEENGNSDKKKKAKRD

PPM1G-Δ258-322-Flag = target: T2, PPM1G-Δ258-322-Flag (UniProt O15355)
T2 sequence: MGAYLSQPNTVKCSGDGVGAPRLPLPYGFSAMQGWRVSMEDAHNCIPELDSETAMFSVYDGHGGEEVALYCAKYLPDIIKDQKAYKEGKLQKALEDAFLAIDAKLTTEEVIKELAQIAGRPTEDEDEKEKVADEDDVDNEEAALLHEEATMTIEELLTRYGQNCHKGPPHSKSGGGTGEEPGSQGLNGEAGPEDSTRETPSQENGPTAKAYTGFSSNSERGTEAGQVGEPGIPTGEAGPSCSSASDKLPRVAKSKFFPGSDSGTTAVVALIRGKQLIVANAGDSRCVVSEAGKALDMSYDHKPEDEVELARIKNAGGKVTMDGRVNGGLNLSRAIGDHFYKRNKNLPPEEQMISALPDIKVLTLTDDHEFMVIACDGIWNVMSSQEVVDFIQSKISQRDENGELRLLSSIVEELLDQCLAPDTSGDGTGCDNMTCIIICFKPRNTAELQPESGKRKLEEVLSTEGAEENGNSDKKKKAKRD

ATG7-Flag = target: T3, ATG7-Flag (UniProt O95352)
T3 sequence: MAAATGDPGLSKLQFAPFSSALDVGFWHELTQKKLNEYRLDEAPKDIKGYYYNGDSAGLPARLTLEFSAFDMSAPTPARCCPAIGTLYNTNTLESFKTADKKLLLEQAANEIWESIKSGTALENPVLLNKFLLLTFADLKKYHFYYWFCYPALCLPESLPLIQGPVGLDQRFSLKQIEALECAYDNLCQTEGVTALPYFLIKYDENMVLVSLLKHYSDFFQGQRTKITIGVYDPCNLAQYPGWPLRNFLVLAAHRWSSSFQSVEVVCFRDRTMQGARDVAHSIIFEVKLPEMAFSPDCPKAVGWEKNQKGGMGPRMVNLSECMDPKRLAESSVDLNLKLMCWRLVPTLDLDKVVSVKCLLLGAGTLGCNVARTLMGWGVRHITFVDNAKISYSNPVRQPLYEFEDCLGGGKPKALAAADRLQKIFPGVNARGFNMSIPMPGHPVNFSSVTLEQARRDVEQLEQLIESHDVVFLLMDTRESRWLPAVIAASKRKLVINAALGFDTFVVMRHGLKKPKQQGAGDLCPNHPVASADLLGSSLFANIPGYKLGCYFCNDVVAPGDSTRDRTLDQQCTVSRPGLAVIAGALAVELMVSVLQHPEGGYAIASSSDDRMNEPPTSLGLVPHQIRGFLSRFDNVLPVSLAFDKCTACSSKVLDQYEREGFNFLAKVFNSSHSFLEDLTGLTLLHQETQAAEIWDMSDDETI

PPM1K-Flag = target: T4, PPM1K-Flag (UniProt Q8N3J5)
T4 sequence: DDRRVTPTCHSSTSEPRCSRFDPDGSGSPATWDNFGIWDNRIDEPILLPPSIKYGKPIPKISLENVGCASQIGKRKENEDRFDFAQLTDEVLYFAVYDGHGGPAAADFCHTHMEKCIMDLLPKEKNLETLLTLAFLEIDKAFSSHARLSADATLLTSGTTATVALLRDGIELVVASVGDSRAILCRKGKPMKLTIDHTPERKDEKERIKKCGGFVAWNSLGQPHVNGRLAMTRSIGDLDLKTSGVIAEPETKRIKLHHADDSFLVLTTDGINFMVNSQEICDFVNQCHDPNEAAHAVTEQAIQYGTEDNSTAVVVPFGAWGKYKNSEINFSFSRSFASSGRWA

Substance	binding (PPM1G-Flag)	binding (PPM1G-Δ258-322-Flag)	binding (ATG7-Flag)	binding (PPM1K-Flag)
IBV/Yamagata PB1-HA (influenza B virus (IBV/Yamagata))	binds			
IBV/Yamagata PB1-His (influenza B virus (IBV/Yamagata))	binds	no binding		
IBV/Yamagata PB2-HA (influenza B virus (IBV/Yamagata))	binds			
IBV/Yamagata PB2-His (influenza B virus (IBV/Yamagata))	binds	no binding		
IBV/Yamagata-NP-His (influenza B virus (IBV/Yamagata))	binds	no binding	binds	no binding
